# Measured values taken from US9119805B2, “Therapy and prevention of problem drinking” (THE UNIVERSITY OF SYDNEY, priority 2009, dated 2015).
# How the values were obtained:
# [1] = system: alcohol-dependent adults and non-dependent problem drinkers; experiment: Human Study 2: intranasal oxytocin, alcohol self-administration; assay type: in vivo; conditions: intranasal 80 IU per day for 7 days, versus placebo
# Description: In a second clinical study in humans, the effect(s) of intranasal oxytocin therapy on alcohol self-administration are determined in a population of alcohol-dependent adults and in a population of non-dependent problem drinkers.
# At least forty male and female adults are recruited from the community to the Brain and Mind Research Institute (BMRI) to participate in a laboratory based investigation looking at the impact of oxytocin on alcohol craving. Participants have a current diagnosis of alcohol dependence according to the Diagnostic and Statistical Manual of Mental Disorders, Fourth Edition (DSM-IV) as determined by the Structured Clinical Interview for the DSM-IV (SCID-IV) or are non-dependent subjects scoring higher than 8 on AUDIT. Male and female participants are chronic hazardous drinkers consuming more than 20 (females) or 25 (males) standard drinks per week (i.e., females: more than 200 g alcohol per week; males more than 250 g alcohol per week), respectively, and have not been abstinent more than 3 days per week in the 30 days preceding commencement of the trial as determined by AUDIT. […]
# Subjects returning to the BMRI on the afternoon of the final day of testing are evaluated. […] Changes in mood, drinking behavior and neuropsychology are evaluated for both groups by comparison with baseline evaluations. […]
# [2] = system: alcohol-dependent adults and non-dependent problem drinkers; experiment: Human Study 1: intranasal oxytocin, stress and alcohol-related cues; assay type: in vivo; conditions: versus placebo
# Description: The underlying mechanisms of intranasal oxytocin during exposure to stress and alcohol related cues in adult alcohol-dependent and adult non-dependent problem drinkers are determined.
# In particular, at least twenty male and female adults reporting alcohol dependence according to the Diagnostic and Statistical Manual of Mental Disorders, Fourth Edition (DSM-IV) as determined by the Structured Clinical Interview for the DSM-IV (SCID-IV) are recruited from the community to participate in a laboratory based investigation on the role of oxytocin in stress-related alcohol craving. All alcohol-dependent participants have a current diagnosis of alcohol dependence according to the SCID-IV, score higher than 8 on the Alcohol Use Disorders Identification Test (AUDIT), and score at least 10 on the Impaired Control Questionnaire (ICQ).
# An additional twenty male and female non-dependent adults are recruited that score higher than 8 on the Alcohol Use Disorders Identification Test (AUDIT).
# Recruited subjects are administered placebo or oxytocin intranasally (80 IU per day: 40 IU at 9:00 am and 40 IU at 9:00 pm) over a period of 7 days, following completion of baseline measurements. Subjects are instructed on self-administration procedures. Drug administration commences on the evening of the day of the clinical and medical interview and ceases on a morning one-week later, after 14 doses have been administered. Subjects are randomized to oxytocin-receiving or placebo-receiving groups, and the groups are stratified according to gender, age, and drinking behavior.
# Subjects returning to the Brain and Mind Research Institute on the afternoon of the final day of testing are evaluated. Bloods and saliva are taken, and plasma oxytocin and cortisol levels and saliva cortisol are determined and compared to baseline levels before commencement of therapy. A urine toxicology test and alcohol breathalyzer test are also performed, to determine whether subjects have been alcohol-free and drug-free at the time of testing. Subjects are tested according to DASS-21, PANAS, 7-day TLFB, and AUQ, and neuropsychological evaluations e.g., according to CANTAB are performed. Changes in mood, drinking behavior and neuropsychology are evaluated for both groups by comparison with baseline evaluations. Changes in smoking behavior are evaluated by FTND testing and comparison with baseline evaluations. HR and BP records over the period and at cessation are also determined and compared to baseline levels before commencement of therapy.
# Subjects also perform an impromptu speech task that is known to induce anxiety, to confirm the anxiolytic action of oxytocin therapy. In particular, subjects deliver a 5-minute speech on a widely-publicized topic familiar to most people e.g., climate change, which they have been misinformed previously is to be delivered by teleconference to a live audience. […] To assess changes in affect, alcohol craving, and physiology following the speech task, participants are subjected to a second round of PANAS, AUQ, and saliva cortisol testing, and their heart rates and blood pressures are determined.
# Following the speech task, participants are presented with alcohol-related cues. […] Following exposure to the alcohol cues, participants are subjected to a third round of PANAS, AUQ, and saliva cortisol testing, and their heart rates and blood pressures are determined. […]
# [3] = during presentation of stress and alcohol cues
# [4] = intranasal 80 IU per day for 7 days
smiles,measurement,setting,value
CC[C@H](C)[C@@H]1NC(=O)[C@H](Cc2ccc(O)cc2)NC(=O)[C@@H](N)CSSC[C@@H](C(=O)N2CCC[C@H]2C(=O)N[C@@H](CC(C)C)C(=O)NCC(N)=O)NC(=O)[C@H](CC(N)=O)NC(=O)[C@H](CCC(N)=O)NC1=O [oxytocin],plasma cortisol levels,[1],lower
same,plasma oxytocin levels,[1],higher
same,arterial blood pressure,[2]; [3],lower
same,heart rate,[2]; [3],lower
same,salivary cortisol,[2]; [3],lower
same,plasma cortisol levels,[2]; [4],lower
same,plasma oxytocin,[2]; [4],higher
